The list shows a part of the results.

The subject of this test is T1, CTL2-GFP (C. trachomatis L2/434/Bu, GFP-expressing).
T1 construct: L2/434/Bu, GFP-expressing
Further details: species or system HeLa; Intracellular C. trachomatis growth in HeLa cells, bulk GFP fluorescence relative to DMSO. To be noted: bulk GFP, single well; 28.5 h, 10 µM; inhibitor.
Take `CN1CCN(S(=O)(=O)c2ccc(-c3cnc(N)c(-c4ccc(O)cc4)n3)cc2F)CC1` [CBK131449]: the “% of control remaining” value is given as 116.367%.

For the compound `Cc1cc(/C=C(\C#N)c2nc3ccccc3[nH]2)c(C)n1-c1ccc(C(=O)O)cc1` [CBK267262], the “% of control remaining” value came out at 165.581%.

With `CCCCN1CC(=O)C(c2nc3ccccc3[nH]2)=C1N` [CBK287777], the “% of control remaining” value is 124.119%.

Regarding `N/N=C1\C2CN3CCN(C2)CC1(Cc1ccccc1)C3` [CBK261977], the “% of control remaining” value was found to be 99.8843%.

For the compound `Cc1ccc(NC(=O)/C(C#N)=C/c2ccc(-c3ccccc3C(=O)O)o2)cc1Cl` [CBK263208], the “% of control remaining” value is 114.755%.

For `O=C(CCCN1C(=O)/C(=C\c2cccs2)SC1=S)Nc1cccc(C(=O)O)c1` [CBK263636], the “% of control remaining” value is listed as 120.132%.

As to `COc1cc(CNc2nccnc2-c2ccc(F)cc2)cc(OC)c1OC` [CBK037328], the “% of control remaining” value was 124.331%.

`Cn1ncc(Cl)c1C1CCCCCN1C(=O)c1cc(C2CC2)on1` (stereo not drawn) [CBK284973]: the “% of control remaining” value came to 121.775%.

On to `O=C(Nc1cc2ccccc2c(Br)n1)C(F)(F)F` [CBK063301], for which the “% of control remaining” value stood at 104.24%.

`CN1CCN(c2nc(NS(=O)(=O)c3ccc(C#N)cc3)cc3ccccc23)CC1` [CBK002977C]: the “% of control remaining” value is 146.809%.

For `CC[C@H](Cn1nc(-c2cccs2)ccc1=O)NC(=O)C1CCC1` [CBK284295], the “% of control remaining” value is 125.953%.

As for `COc1ccc(-c2ccccc2)cc1CN(Cc1ccc2c(c1)OCO2)CC(C)O` (stereo not drawn) [CBK286471], the “% of control remaining” value is given as 109.282%.

Regarding `CCOC(=O)c1cnn(-c2ccccc2)c1NS(=O)(=O)c1cccc(Cl)c1C` [CBK024055], the “% of control remaining” value is 120.095%.

As for `CC(=O)Nc1ccc(CNC(=O)c2cc(C)n(CC(F)(F)F)c2C)cc1` [CBK304523], the “% of control remaining” value was found to be 133.565%.

Take `Nc1c(C(=O)NCC2CCCO2)c2nc3ccccc3nc2n1C1CCCC1` (stereo not drawn) [CBK269217]: the “% of control remaining” value is on record as 68.9222%.

Take `Cc1ccc(C)c(C(NC(=O)CCCn2ccnc2)c2ccncc2)c1` (stereo not drawn) [CBK281476]: the “% of control remaining” value worked out at 126.192%.

As for `COc1cc(C(=O)N2CCC3(CC2)CC(=O)c2cc(-c4cccnc4)ccc2O3)cc(OC)c1C` [CBK169606], the “% of control remaining” value is 72.6128%.

As to `O=C1CC2(CCN(C(=O)C3CCCC3)CC2)Oc2ccccc21` [CBK283485], the “% of control remaining” value was found to be 133.291%.

On to `COCCSCc1cn2cc(Br)ccc2n1` [CBK306361], for which the “% of control remaining” value was found to be 119.166%.

As to `COC(=O)c1c(NC(=O)C(=O)NCc2ccco2)sc2c1CCCC2` [CBK269269], the “% of control remaining” value stood at 151.62%.

`COc1cc(-c2nccnc2N2CCN(c3ccncc3)CC2)cc(OC)c1OC` [CBK036847]: the “% of control remaining” value is 182.217%.

For `Cc1nc(=O)c(-c2ccccc2)c(C)n1CCc1c[nH]cn1` [CBK287900], the “% of control remaining” value stood at 121.784%.

`O=c1cc(NCCCN2CCN(Cc3ccccc3)CC2)c2ccccc2o1` [CBK011079]: the “% of control remaining” value was 145.828%.

Regarding `COc1cc(CNC(C)(C)CO)ccc1OCc1ccc(Cl)cc1` [CBK266433C], the “% of control remaining” value was determined as 140.089%.

Turning to `O=C(c1cnccn1)N1CCN(c2nc3c(F)cccc3s2)CC1` [CBK287722], the “% of control remaining” value was determined as 114.413%.

Take `CC(=O)NCCCCCC(=O)Nc1ccc(C(=O)O)cc1` [CBK287241]: the “% of control remaining” value turned out to be 111.836%.

As to `COc1ccc(S(=O)(=O)N(CC(=O)Nc2ccc(F)cc2)c2ccccc2)cc1` [CBK264141], the “% of control remaining” value is given as 131.164%.

In the case of `COc1ccccc1OCCO` [CBK000949], the “% of control remaining” value is 107.053%.

On to `O=C(CN1CCN(c2ccc(C(F)(F)F)cn2)CC1)c1ccc2c(c1)OCCO2` [CBK074700], for which the “% of control remaining” value was 66.4517%.

On to `O=C(COc1ccc2ccccc2c1Br)Nc1ccc(S(=O)(=O)N2CCCC2)cc1` [CBK264135], for which the “% of control remaining” value is 100%.

With `Cc1ncc(CO)c(/C=N/N=C/c2ccc(O)c(O)c2)c1O` [CBK265075], the “% of control remaining” value was 96.8965%.

As to `COc1cc(Cn2c(-c3ccc(O)c(OC)c3)nc3ccccc32)ccc1O` [CBK291138], the “% of control remaining” value turned out to be 137.117%.

Consider `COc1ccc(CN2CCCn3c4c(c5cc(C)ccc53)CCCC42)cc1OCc1ccccc1` (stereo not drawn) [CBK262879], for which the “% of control remaining” value is reported as 102.591%.

Consider `Cn1ccnc1CN1CCN(Cc2nccn2C)CC1` [CBK266206C], for which the “% of control remaining” value is recorded as 111.349%.

With `O=C(O)Cc1csc(NC(=O)c2ccc(N3CCCCC3)c([N+](=O)[O-])c2)n1` [CBK296081], the “% of control remaining” value is reported as 139.897%.

In the case of `COc1ccc(-c2cnc(N)c(NCC(C)(C)CO)n2)c(OC)c1OC` [CBK063542], the “% of control remaining” value is listed as 144.999%.

On to `c1cncc(COc2nccnc2N2CCN(CCN3CCOCC3)CC2)c1` [CBK083141], for which the “% of control remaining” value is 117.415%.

As to `CCOc1ncccc1C(=O)NCc1ccc(NC(N)=O)cc1` [CBK279382], the “% of control remaining” value was determined as 83.7686%.

As to `O=C(O)c1ccc(COc2ccc(/C=C3\SC(=S)N(Cc4cccnc4)C3=O)cc2)cc1` [CBK264637], the “% of control remaining” value is reported as 100%.

On to `CN1C2CCC1CC(OC(=O)CN1CCCCC1)C2` (stereo not drawn) [CBK278166C], for which the “% of control remaining” value was 104.315%.

Take `Cc1nccn1CC1(O)CCN(Cc2cn(C)c3ccccc23)CC1` [CBK285017]: the “% of control remaining” value came out at 140.982%.

As to `COc1ccc(CC(=O)Nc2ccc(S(N)(=O)=O)cc2)cc1OC` [CBK263429], the “% of control remaining” value came out at 123.689%.

For the compound `Cc1cc(/C=C/C2=CCN(C)CC2)c(C)n1C1CC1` [CBK283858], the “% of control remaining” value was 110.137%.

In the case of `COc1ccc(-c2nc(NC(=O)c3ccncc3)cnc2-c2ccc(F)c(Cl)c2)cc1` [CBK036663], the “% of control remaining” value is listed as 103.563%.

As to `Nc1ncc([C@H]2C[C@@H](O)[C@@H](CO)O2)c(=O)[nH]1` [CBK201246], the “% of control remaining” value came out at 144.953%.

With `COc1ccc(C(CCN)c2ccccc2OC)cc1` (stereo not drawn) [CBK266125], the “% of control remaining” value is 92.1584%.

For `CCCNCCc1ccc(NC(=O)NCCc2ccccc2)cc1` [CBK173873T], the “% of control remaining” value is 172.521%.

Consider `CCCN(CCC)C(=O)c1ccc(-n2nc(C(=O)OCC)c(Br)c2C)cc1` [CBK114363], for which the “% of control remaining” value is given as 102.355%.

For `CCCCOc1ccc(NC(=O)NC(=O)C2CCN(CCc3ccc(Br)cc3)CC2)cc1` [CBK035096], the “% of control remaining” value stood at 100%.

With `COc1cccc(NC(=O)N[C@H]2C[C@@H](c3nc(-c4ccccn4)no3)N(C)C2)c1` [CBK288853], the “% of control remaining” value was 98.7362%.

Take `c1ccc(Oc2cccc(CN3CCOCC3)c2)cc1` [CBK261870]: the “% of control remaining” value amounted to 112.477%.

With `CN1C(=O)COc2ccccc2C/C=C/C[C@@H]2[C@H]1CCCN2C(=O)Cn1ccc(=O)[nH]c1=O` [CBK292093], the “% of control remaining” value stood at 129.693%.

As for `CCCc1cc(O)n(-c2nc3ccccc3[nH]2)n1` [CBK270269], the “% of control remaining” value is 120.449%.

Regarding `CCc1ccc(OCC(=O)NC(=S)Nc2cccc3nsnc23)cc1` [CBK267173], the “% of control remaining” value is recorded as 133.617%.

As for `Cn1c(NC(=O)CSc2nnc(Cc3cccc4ccccc34)o2)cc(=O)n(C)c1=O` [CBK266055], the “% of control remaining” value is 105.752%.

For the compound `O=C(CSc1ccc(Cl)cc1)Nc1cc(Cl)ccc1C(=O)O` [CBK264217], the “% of control remaining” value was found to be 118.322%.

As for `O=C(O)CCC(=O)N1N=C(c2c(-c3ccccc3)c3cc(Cl)ccc3[nH]c2=O)CC1c1ccccn1` (stereo not drawn) [CBK296106], the “% of control remaining” value was found to be 129.011%.

Turning to `CSc1nc(N)nc(SC(C(=O)O)c2ccccc2)c1C#N` (stereo not drawn) [CBK267461], the “% of control remaining” value turned out to be 127.419%.

Turning to `O=C1CC(c2ccc(Cl)cc2)CC(=O)C1=CNCCN1CCN(C(=O)Nc2ccccc2)CC1` (stereo not drawn) [CBK263671], the “% of control remaining” value amounted to 109.384%.

As for `O=C(N/N=C\c1cccc(OC(=O)c2cccs2)c1)c1ccc([N+](=O)[O-])cc1` [CBK262289], the “% of control remaining” value came to 100%.

Consider `Cn1ccnc1C1(O)CCN(C(=O)NC2CCCCC2)CC1` [CBK282275], for which the “% of control remaining” value came to 116.086%.

As to `COc1cc(C)c(C)cc1S(=O)(=O)N1[C@@H](c2ccccc2F)C[C@@H]2NC(=O)CCC[C@H]21` [CBK286012], the “% of control remaining” value is given as 103.545%.

`COCCNC(=O)c1cnn2c(C)c(Cc3ccccc3C)c(C)nc12` [CBK160253]: the “% of control remaining” value came to 107.096%.

For `O=C(Nc1ccccc1)c1ccc(F)cc1-n1cnnn1` [CBK287903], the “% of control remaining” value came to 116.015%.

`O=C1CCC(=O)N1CCOc1nccnc1OC1CCNCC1` [CBK075084T]: the “% of control remaining” value is given as 118.77%.

Take `Nc1cc(Cl)cc2[nH]c(=O)c3cc(Cl)ccc3c12` [CBK017144]: the “% of control remaining” value stood at 100%.

On to `CCOC(=O)Nc1ccc2c(c1)N(C(=O)CCN1CCOCC1)c1ccccc1CC2` [CBK261291C], for which the “% of control remaining” value came out at 100%.

Regarding `COc1ccc(C(=O)Nc2nc(OCC(F)(F)F)cnc2/C=C\c2ccccc2)c(OC)c1` [CBK145367], the “% of control remaining” value is reported as 122.691%.

Take `O=C(N/N=C/c1ccc(Br)s1)c1cccc([N+](=O)[O-])c1` [CBK261354]: the “% of control remaining” value amounted to 83.742%.

Regarding `COc1ccc(/C=C(\NC(C)=O)C(=O)N2CCNCC2)cc1` [CBK077408], the “% of control remaining” value was 104.835%.

For the compound `CCc1c(C)nc2ccc(Br)cc2c1SCCC(=O)O` [CBK126914], the “% of control remaining” value is 85.5956%.

In the case of `Cc1ccc(CCn2cc(C)nc2C)cn1` [CBK021231], the “% of control remaining” value was determined as 149.104%.

`Cc1cc(C)cc(S(=O)(=O)c2ccc3ccnc(N4CCCNCC4)c3c2)c1` [CBK036413C]: the “% of control remaining” value was 119.6%.

As to `O=C1/C(=C/c2ccc3c(c2)OCO3)SC(=S)N1CCCC(=O)N1CCCc2ccccc21` [CBK264676], the “% of control remaining” value was 100%.

As for `O=C(Cn1cnc2sc(-c3ccccc3)cc2c1=O)c1ccc2c(c1)OCO2` [CBK297102], the “% of control remaining” value was found to be 144.164%.

On to `NC(=O)CS(=O)(=O)c1ccc(Cl)cc1` [CBK026373], for which the “% of control remaining” value amounted to 148.896%.

For `Cc1cccc(C)c1OCC(=O)Nc1c[nH]c(=O)[nH]c1=O` [CBK263358], the “% of control remaining” value turned out to be 117.017%.

Regarding `CN1CCN(C(=O)c2ccc(NS(=O)(=O)c3ccc(Oc4ccccc4)cc3)cc2)CC1` [CBK034559], the “% of control remaining” value is 112.699%.
